Drawing on article PMC7251110, this text covers binding for 1 substance.

By UniProt entry, the sequences of proteins in these tests, tags left out. Where a name states a change or a piece, a line headed by the entry shows the natural chain unless it says otherwise.
UniProt Q9H8M2: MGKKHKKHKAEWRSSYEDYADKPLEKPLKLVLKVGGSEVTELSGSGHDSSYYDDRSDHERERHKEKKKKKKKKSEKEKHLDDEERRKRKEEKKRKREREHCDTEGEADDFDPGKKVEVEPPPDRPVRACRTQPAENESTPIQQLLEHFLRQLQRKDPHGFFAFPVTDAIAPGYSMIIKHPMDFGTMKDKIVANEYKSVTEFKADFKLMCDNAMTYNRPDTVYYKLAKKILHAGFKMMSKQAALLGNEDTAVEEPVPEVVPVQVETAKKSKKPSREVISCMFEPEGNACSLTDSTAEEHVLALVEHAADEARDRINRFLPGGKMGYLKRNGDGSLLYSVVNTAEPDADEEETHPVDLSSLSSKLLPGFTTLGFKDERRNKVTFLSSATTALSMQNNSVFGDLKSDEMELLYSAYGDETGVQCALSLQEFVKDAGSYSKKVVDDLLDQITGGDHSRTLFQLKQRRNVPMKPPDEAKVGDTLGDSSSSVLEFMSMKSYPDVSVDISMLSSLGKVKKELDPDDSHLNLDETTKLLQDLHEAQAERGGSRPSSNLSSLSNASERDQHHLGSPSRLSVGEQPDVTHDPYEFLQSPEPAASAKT
UniProt Q06609: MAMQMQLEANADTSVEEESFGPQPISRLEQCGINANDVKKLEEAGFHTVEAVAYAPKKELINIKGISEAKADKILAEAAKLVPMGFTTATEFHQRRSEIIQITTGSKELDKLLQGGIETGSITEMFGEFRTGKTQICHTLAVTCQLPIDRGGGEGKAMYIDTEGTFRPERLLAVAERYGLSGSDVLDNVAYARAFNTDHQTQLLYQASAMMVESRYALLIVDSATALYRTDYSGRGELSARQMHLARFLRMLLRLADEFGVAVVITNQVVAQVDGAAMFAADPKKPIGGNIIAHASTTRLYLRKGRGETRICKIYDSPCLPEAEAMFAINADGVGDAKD

The assay has as its target HA-tagged BRD9 with a deletion of the bromodomain (∆-Bromo) (UniProt Q9H8M2). The assay can be described thus: co-IP; 293T cells transfected with HA-BRD9 constructs, with or without 10-Gy IR, anti-HA beads, blots for RAD51 and RAD54; NETN buffer, 4 °C.

These are yes or no findings as the source states them, for the method shown. In cells and extracts the contact can be indirect. Binding calls can cover weak binding; strength is not graded here.

Consider “RAD51 (detected with anti-RAD51 antibody in cell lysates) (from UniProt Q06609 1-339)”, for which the binding entry is “binds”.
